{
  "source": "paper PMC6747150",
  "binders": {"B1": {"name": "Csp3 from Bacillus subtilis (BsCsp3) (protein, UniProt O07571 1-108)", "chain": "MEQYSEACIEACIDCMKACNHCFTKCLEESVQHHLSGCIRLDRECADICALAVKAMQTDSPFMKEICALCADICEACGTECGKHDHDHCQACAKACFTCAEQCRSMAA"}},
  "biological_target": "Csp3 from Bacillus subtilis (BsCsp3) (Bacillus subtilis) (UniProt O07571)",
  "assay": "SEC; Superdex 75 10/300 GL, 20 mM Hepes pH 7.5 plus 200 mM NaCl; BsCsp3-containing anion-exchange fractions from cell-free extracts; elution position compared with the purified BsCsp3 tetramer; both purified",
  "note": "These are yes or no findings as the source states them, for the method shown. Some binding calls cover weakened binding; strength is not graded here.",
  "data": [
    {"binder": "B1", "values": [
      {"measurement": "binding", "value": "binds"}
    ]}
  ]
}
